# Data taken from PMC10461225 (Journal of Medicinal Chemistry, 2023).
# Assay: general procedure: Fmoc solid-phase peptide synthesis; ProTide Rink amide resin; Oxyma Pure (0.25 M) and N,N'-diisopropyl carbodiimide (0.125 M)
# Settings: conjugation step, Agilent Eclipse XDB-C18, 10-90% acetonitrile gradient, tracked at 280 nm
row,Substance,final HPLC purity [%]
1,GRASP(K2)–AlexaFluor546 conjugate,99
2,GRASP(K2)–sulfo-Cy5 conjugate,95
3,PEG2-C4-alkyne-biotin conjugated GRASP at K2-azido,95
